Here are results for eleven compounds from the supplement of paper PMC7024190.

Each structure is given as a SMILES string. The list shows a part of the results. Repeats in this data set agree poorly, so a single value says little.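 A first-round screen of about ten thousand compounds sought those raising reporter output, using human embryonic kidney cells briefly transfected with a plasmid carrying a Renilla luciferase gene driven by the HSV-TK promoter.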

The test system of this assay is HEK 293FT. The assay is described as follows: log relative Renilla luciferase luminescence (reporter expression vs reference, reference not stated) (log (base not stated)); higher = higher recombinant reporter expression. The settings on record: 10 µM; time after transfection 48 h. Here is the method:
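HEK 293FT cells transiently transfected with pRL-TK (Renilla luciferase) were treated with compounds at 10 uM and luminescence was read about 42 h later. Values are log relative Renilla luminescence (log base and reference not stated). Single-pass screen; 2080 natural products library.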
Consider `CC[C@H](CC[C@@H](C)[C@H]1CC[C@H]2[C@@H]3C[C@@H](O)[C@@]4(O)C[C@@H](O)CC[C@]4(C)[C@H]3CC[C@]12C)C(C)C` [Stigmastane-3,5,6-triol], for which the log was -0.424.
On to `COc1ccc2ccc(=O)oc2c1CC=C(C)C` [Osthol], for which the log was determined as 0.205.
In the case of `CC(=O)CC[C@@H]1[C@H]([C@H]2C(=O)CC[C@]2(C)C(CC(C)C)c2c(O)c(C=O)c(O)c(C=O)c2O)C1(C)C` (stereo partly specified) [Eucalyptone], the log was -0.204.
In the case of `CC(=O)O[C@H]1C[C@H]2C(=CC[C@@H]3[C@]2(C)CCC[C@@]3(C)C(=O)O)C=C1C(C)C` [12-Acetoxyabietic acid] it was -0.0137; in that of `Cc1coc2c1C(=O)C(=O)c1c-2ccc2c1CCCC2(C)CO` (stereo unspecified) [Tanshinone IIB], -0.285.
Regarding `C/C=C1\C[N+]2([O-])CCC1C(CO)(C(=O)OC)c1[nH]c3ccccc3c1C2` (stereo unspecified) [Vallesamine N-oxide], the log was -0.321.
Turning to `COc1cc(O[C@@H]2O[C@H](CO)[C@@H](O)[C@H](O)[C@H]2O)cc(OC)c1OC` [Koaburaside monomethyl ether], the log is -0.401.
For the compound `COc1ccc(-c2oc3c(OC)c(O)c(OC)c(O)c3c(=O)c2OC)cc1` [Araneosol], the log is -0.0599.
Consider `CC1=CC[C@]2(C)CC[C@]3(C)[C@H](CC[C@@H]4[C@@]5(C)CC[C@H](O)C(C)(C)[C@@H]5CC[C@]43C)[C@H]2[C@@H]1C` [Pseudotaraxasterol], for which the log is 0.161.
Consider `COc1ccc2ccc(=O)oc2c1C[C@@H]1OC1(C)C` [Meranzin], for which the log stood at 0.219.
With `O=C(O)C1=C[C@@H](O)[C@@H](O)[C@H](O)C1` [Shikimic acid] the figure was 0.0724.
